Laboratory results from the supplement of paper PMC10338343.
± gives the standard deviation. The list shows a part of the results. Many of these values have a large error.

Tested on: EfPiwi piRISC loaded with L1MC piRNA (26 nt)
Test: pre-steady-state target cleavage rate (min^-1); guide: L1MC piRNA 5'p-UAACUAAAUACUAUGCAAGCUGUAGG; MIWI and MILI are mouse PIWI proteins and EfPiwi is from a freshwater sponge; tags in brackets are library labels; higher = faster piRNA-guided slicing of the target
Settings: auxiliary factor: 500 nM Ephydatia muelleri Gtsf1
Experimental: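 Cleave-'n-Seq: a library of target RNAs (target site in constant flanks) at […] was incubated with 1 nM active freshwater sponge Ephydatia fluviatilis Piwi piRISC (synthetic 5'-monophosphorylated piRNA guide) with or without 500 nM EmGtsf1 at 33 °C for 1 min to 16 h. Uncleaved targets were sequenced and the pooled three trials fitted to a burst-and-steady-state model to give the pre-steady-state cleavage rate (min^-1). Sequence is the target site only. Fits with R² ≤ 0 are excluded.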

Sequence | pre-steady-state target cleavage rate
UCCUGGAUGUCCUUCCAUAGUAAUUAGUUA | 0.00075 ± 0.0061
UCCUGCUACAGCUGCAUAGUAUUUAGUUA | 0.0102 ± 0.0026
UCCUGGAUGUGCUUGCAUAGUAUUAAGAUA | 0.000898 ± 0.0045
UCCUGGAACAGCUUGGUAAGUAUUUAGUUA | 0.00181 ± 0.0057
UCCUGGAUGUCCUUGCUUAGAAUUUAGUUA | 0.000134 ± 0.031
UCCUGCUACAGCUUGCAAUGUAUUUAGUUA | 0.00312 ± 0.0024
UCCUGGAUGUCCUUGCAUAGUUUUUAGUAA | 0.00206 ± 0.0043
UCCUGGUAGAGCUUGCAUAGUAUUUAGUAA | 0.00742 ± 0.0038
UCCUGGAACAGGUUGCAUAGUAUUUAGAAA | 0.00261 ± 0.0017
UCCUGGAUGUCGAUGCAUAGUAUUUAUUA | 0.000454 ± 0.0093
UCCUGGAUGUCCUUGCAUAGUUUUAGUUA | 0.000266 ± 0.012
UCCUGGAUGAGCUAGCAUAGUAUUUAGUAA | 0.00419 ± 0.0024
UCCUGGAUCAGCUUGCAUAGAAUUUAGUAA | 0.00215 ± 0.003
UCCUCCUACAGCUUGCAUUGAAUUUAGUUA | 0.00141 ± 0.0053
UCCUGGAUGAGCUUGCAUAGUAUUUAGUUUA | 0.0215 ± 0.0067
UCCUGGAUCAGCUUGCUUAGUAUUUAGUAA | 0.00325 ± 0.0034
UCCUGGAACAGCUUGCAUAGUAUAUACAAA | 0.00131 ± 0.0042
UCCUCCUACAGCUUGCAUAUGUAUUUAGUUA | 0.00297 ± 0.0032
UCCUGGUACAGCAUGCAUAGUAUUAAGUUA | 0.00442 ± 0.002
UCCUGCUAGAGCAUGCAUAGUAUUUAGUUA | 0.00618 ± 0.0015
UCCUGGAUGUCGAACGUUAGUAUUAAGUUA | 0.000142 ± 0.022
UCCUGCUACAGCAACCAUAGUAUUUAGAAA | 0.00206 ± 0.004

Same assay, conditions: auxiliary factor: none (no Gtsf1)

Sequence | pre-steady-state target cleavage rate
UCCUGCAACAGCUUGCAUAGUAUUUUGUUA | 0.00026 ± 0.021
UCCUGGAUGUCCUUCCAUAGUAAUUAGUUA | < 0.0001
UCCUGGAUGUGCUUGCAUAGUAUUAAGAUA | 0.00108 ± 0.0091
UCCUGGAUGUCCUUGCUUAGAAUUUAGUUA | 0.000123 ± 0.051
UCCUGCUACAGCUUGCAAUGUAUUUAGUUA | 0.000553 ± 0.0091
UCCUGGAUGUCCUUGCAUAGUUUUUAGUAA | < 0.0001
UCCUGGUAGAGCUUGCAUAGUAUUUAGUAA | 0.000572 ± 0.018
UCCUGGAACAGGUUGCAUAGUAUUUAGAAA | 0.000402 ± 0.016
UCCUGGAUGUCGAUGCAUAGUAUUUAUUA | 0.000269 ± 0.026
UCCUGGUACUGGUUGCAUAGUAUUUAGUUA | 0.000873 ± 0.013
UCCUGGAUCAGCUUGCAUAGAAUUUAGUAA | 0.000349 ± 0.017
UCCUGGAUGUGUUUGCAUAGUAUUUAGUUA | 0.00155 ± 0.009
UCCUCCUACAGCUUGCAUUGAAUUUAGUUA | 0.000156 ± 0.021
UCCUGGAACAGCUUGCAUAGUAUAUACAAA | 0.000236 ± 0.025
UCCUCCUACAGCUUGCAUAUGUAUUUAGUUA | 0.000431 ± 0.011
UCCUGGAUGAGCUUGCAUAGUUUUUAGAAA | 0.00023 ± 0.038
UCCUGGUACAGCAUGCAUAGUAUUAAGUUA | 0.000506 ± 0.018
UCCUGCUAGAGCAUGCAUAGUAUUUAGUUA | 0.000253 ± 0.016
